Experimental data: PubChem BioAssay AID662 (National Center for Advancing Translational Sciences (NCATS), 2007)
The list shows a part of the results. The main result of the screen is listed elsewhere. These columns were measured beside it and carry no call. The list favours compounds with an active or inconclusive main result. Potencies come from curve fits of mixed quality, noted in brackets.

test: Cell signaling CRE-BLA (Fsk stim); settings: CHO CRE-bla reporter (cAMP response element driving beta-lactamase), forskolin EC10, beta-lactamase ratio; measured here: 460 nm blue channel
Procedure, shortened: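 Modulation of forskolin-driven signalling is measured in CHO cells carrying a CRE-controlled beta-lactamase reporter. Cells are stimulated with EC10 NKH 477 in the presence of titrated compound for 3 h at 37 °C, then loaded with CCF4 for 2 h at room temperature.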

Structure (SMILES)	AC50
COc1cccc(CC(=O)NCC2COc3ccccc3O2)c1OC (centres undefined)	7.94 µM [rising, partial curve]
Cc1ccc(S(=O)(=O)NC(CN2CCOCC2)=NCCNS(=O)(=O)c2ccccc2)cc1	0.1 µM [falling, partial curve]
CC(=O)Nc1nc2n(n1)C(c1ccc(Cl)cc1)C=C(C)N2 (centres undefined)	25.1 µM [rising, single point]
O=c1c2oc3ccccc3c2ncn1Cc1ccccc1F	10 µM [rising, single point]
Cc1nc2c([nH]1)c(=O)n(C)c(=O)n2Cc1ccco1	20 µM [rising, single point]
COc1ccc(-c2cc3nc(C)cc(NCCO)n3n2)cc1	12.6 µM [rising, partial curve]
CC(=O)OCC1OC(n2ccc(=O)[nH]c2=O)C(O)C1O (centres undefined)	0.00794 µM [falling, full curve]
COc1cccc(C(=O)Nc2cccc(-c3nnc(-c4ccccc4)o3)c2)c1	31.6 µM [falling, single point]
Cc1nc(SCC(=O)N2CCCc3ccccc32)c2oc3ccccc3c2n1	1.26 µM [rising, partial curve]
CC1(C)Cc2c(C#N)c(N3CCCC3)nc(-c3ccco3)c2CO1	10 µM [rising, partial curve]
CNc1cc(OC)c(C(=O)N[C@@H]2CCN(Cc3ccccc3)[C@H]2C)cc1Cl	12.6 µM [rising, single point]
O=C(NCc1nc2ccccc2[nH]1)c1ccc(Cl)c(S(=O)(=O)N2CCCC2)c1	0.126 µM [falling, full curve, poor fit]
CCOC(=O)CSc1nc2c(c(=O)n1-c1ccc(OC)cc1)SCC2	12.6 µM [rising, partial curve]
CCOc1ccc(NS(=O)(=O)c2ccc3[nH]cc(C(=O)NC(C)CC)c(=O)c3c2)cc1 (centres undefined)	0.126 µM [falling, full curve, poor fit]
O=C(NC1(C(=O)NC2CCCCC2)CCCCC1)c1ccc2c(c1)OCO2	3.98 µM [falling, single point]
COCCN(CCOC)c1nc(C)nc2c1nc(-c1ccccc1)n2CCN(C)C	25.1 µM [rising, single point]
Clc1ccccc1OCc1nn2c(-c3ccncc3)nnc2s1	10 µM [rising, partial curve]
COCCn1c(=O)c(-c2ccc(F)cc2)nc2cnc(Oc3ccc(OC)cc3)nc21	12.6 µM [rising, partial curve]
Cc1cccc(/C=C\c2ccccc2)n1	12.6 µM [falling, single point]
Nc1cc(=O)[nH]c(SCc2nc3ccccc3n2Cc2ccccc2)n1	0.501 µM [rising, full curve]
CCNc1ncc2nc(-c3ccccc3)c(=O)n(Cc3ccc(F)cc3)c2n1	12.6 µM [rising, partial curve]
CN(C)CCCc1cc(C(=O)Nc2ccc(-c3ccncc3)cc2)ccc1O	0.0316 µM [rising, full curve, poor fit]
OCCN(Cc1ccccc1)Cc1ccccc1F	0.00794 µM [falling, full curve, poor fit]

Structure (SMILES)	AC50
C/C(Nc1cccc(F)c1)=C(/C#N)C(N)=O	12.6 µM [falling, partial curve, poor fit]
CCCn1c(C)nc2c(NCc3ccccc3)nc(C)nc21	12.6 µM [rising, partial curve]
CCCC(=O)Nc1cccc(-c2nc3cc(C)c(C)cc3o2)c1	5.01 µM [falling, single point]
CCOC(=O)CC(=O)CSc1ccc2nnc(-c3ccc(C)cc3)n2n1	10 µM [rising, partial curve]
CC[C@@H](CO)Nc1nc(NCc2ccccc2)c2ncn(C(C)C)c2n1	25.1 µM [falling, single point]
Cn1cc(-c2nc3cnc(Oc4ccccc4)nc3n(CCC#N)c2=O)c2ccccc21	2.51 µM [rising, full curve]
CCCCN1CSC(=S)N(Cc2ccccc2)C1	0.794 µM [falling, single point]
COCC(=O)Nc1nc2n(n1)C(c1ccc(Cl)cc1)CC(c1ccc(OC)cc1)N2 (centres undefined)	0.00398 µM [falling, full curve, poor fit]
COC(=O)c1sc(NC(=O)c2ccc(Cn3cc(Cl)cn3)o2)c(C#N)c1C	1.58 µM [rising, full curve, poor fit]
COc1ccccc1N(CC(=O)NC1CCCC1)C(=O)CCC(=O)Nc1cc(C)on1	0.1 µM [falling, single point]
CC(=O)NCCn1c(C)cc2ccccc21	10 µM [rising, partial curve]
CCNc1nc(NCC)nc(OCCOC(=O)c2ccccc2)n1	12.6 µM [rising, partial curve]
COc1cc(-c2n[nH]c(=O)o2)cc(OC)c1OC	10 µM [rising, single point]
O=C(Nc1ccc2nc(-c3ccc(Br)o3)[nH]c2c1)c1ccco1	7.94 µM [rising, partial curve]
CCOC(=O)C1CCN(CC(=O)c2c(C)[nH]c3cc(C)ccc23)CC1	3.98 µM [falling, full curve]
CCN(CC(=O)Nc1ccc2c(c1)OCO2)Cc1nc2ccccc2c(=O)[nH]1	10 µM [rising, single point]
COc1cccc(C(=O)N2CCSC2=S)c1	10 µM [falling, single point]
COc1cccc(N2CCN(Cc3coc4c(Cl)cc(Cl)cc4c3=O)CC2)c1	7.94 µM [falling, single point]
CCOC(=O)c1oc2ccccc2c1NC(=O)c1ccc2c(c1)OCO2	1.58 µM [rising, full curve]
CCNc1ncc2nc(-c3ccc(OC)cc3)c(=O)n(CCC#N)c2n1	10 µM [rising, partial curve]
O=C(CCc1ccccc1)NC1CCSC1=O (centres undefined)	1 µM [rising, partial curve]
CCOC(=O)C(C)Oc1cccc2c(=O)n(CC(=O)NCc3ccc4c(c3)OCO4)ccc12 (centres undefined)	3.16 µM [rising, single point]
O=C(Nc1ccccc1N1CCCCC1)c1cccc(F)c1	15.8 µM [rising, partial curve]

2 records picked at random from the list so far:
Structure (SMILES)	AC50
CCNc1ncc2nc(-c3ccc(OC)cc3)c(=O)n(CCC#N)c2n1	10 µM [rising, partial curve]
O=C(Nc1ccc2nc(-c3ccc(Br)o3)[nH]c2c1)c1ccco1	7.94 µM [rising, partial curve]

Next structures follow:

Structure (SMILES)	AC50
CC(=O)C1=C(C)NC(SCC(=O)c2ccccc2)=C(C#N)C1c1ccco1 (centres undefined)	10 µM [rising, partial curve]
Cc1ccccc1OCc1nnc2c3cnn(C)c3ncn12	3.16 µM [rising, single point]
Cc1ccccc1-c1nc(CS(=O)CC(=O)NCCCN(C)c2ccccc2)c(C)o1 (centres undefined)	0.00398 µM [falling, full curve, poor fit]
Cc1cccc2cc(C#N)c(SCC(=O)N3CCC(C)CC3)nc12	12.6 µM [rising, single point]
N#Cc1ccc(OC(=O)c2ccc(N=C(N)N)cc2)cc1	3.16 µM [falling, single point]
O=S(=O)(c1cccc2cnccc12)N1CCCNCC1	15.8 µM [falling, partial curve]
COC(=O)CCC(=O)N1CCc2cc(S(=O)(=O)N3CCc4ccccc43)ccc21	25.1 µM [rising, single point]
O=C(O)[C@@H]1[C@@H]2O[C@H]([C@@H](Br)[C@H]2Br)[C@H]1C(=O)O	5.01 µM [rising, single point]
CCOc1ccc(-c2nnn(CC(=O)c3ccc4c(c3)OCCO4)n2)cc1OCC	12.6 µM [rising, partial curve]
CCCN(C#N)c1nc(NCC)nc(NC(C)C)n1	15.8 µM [rising, partial curve]
COc1ccc(-c2cc(C(F)(F)F)nc(S(C)(=O)=O)n2)cc1OC	0.398 µM [falling, full curve]
COc1ccccc1C1CC(c2ccc(F)cc2)Nc2ncnn21 (centres undefined)	2.51 µM [falling, partial curve]
O=C1CCCN1CCCNc1ncnc2c1cnn2-c1ccc(Cl)cc1	3.16 µM [rising, full curve]
CCn1c(SCC(=O)NC(=O)Nc2ccc3c(c2)OCCO3)nnc1-c1cccs1	12.6 µM [rising, single point]
CCc1nc2cc(C)nn2c2nc3ccccc3n12	3.98 µM [rising, full curve]
CCN1CCCC1CNC(=O)c1ccc(N2CCCC2=O)cc1 (centres undefined)	6.31 µM [falling, partial curve]
Fc1ccc(-c2cc(C(F)(F)F)nc(-n3cncn3)n2)cc1	3.16 µM [falling, partial curve]
CC(C)Cn1c(CN(C)Cc2ccccc2)nc2c1c(=O)n(C)c(=O)n2C	12.6 µM [rising, partial curve]
Cc1cc2cc(CCNC(=O)CC(C)(C)C)c(=O)[nH]c2cc1C	15.8 µM [rising, single point]
CN(C)c1ccc(/C=[N+](\[O-])C(C)(C)/C=N/O)cc1	3.16 µM [falling, partial curve, poor fit]
Cn1c(C(C#N)/C(=N\S(=O)(=O)c2cccs2)c2ccccc2)nc2ccccc21 (centres undefined)	20 µM [rising, partial curve]
CN(C)c1ccc(-c2cc(N(C)Cc3ccco3)ncn2)cc1	6.31 µM [rising, partial curve]
Cc1c(-c2nc(N)nc(Nc3ccc(F)cc3)n2)oc2ccccc12	20 µM [rising, partial curve, poor fit]

In the list so far, these contain a CF3 group.
Structure (SMILES)	AC50
COc1ccc(-c2cc(C(F)(F)F)nc(S(C)(=O)=O)n2)cc1OC	0.398 µM [falling, full curve]
Fc1ccc(-c2cc(C(F)(F)F)nc(-n3cncn3)n2)cc1	3.16 µM [falling, partial curve]
